Reference: the supplement of paper PMC5949888
Most values lie at the floor of the assay. Slopes are relative: functional sequences can read slightly below zero.

tested on: Saccharomyces cerevisiae PS128 hsf1 delta, HSF1(1-493) fusion; assay: growth estimate (transactivation domain function in HSF1 fusion, heat-shock survival) (a.u. (slope of normalised read count over time)); higher = stronger growth at 37°C, i.e. more transactivation activity; details: library: random library
Description: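 Random 60-nt DNA library encoding peptides of up to 20 aa, fused to the C-terminus of yeast HSF1 residues 1-493 (C-terminal TAD deleted) and expressed from the native HSF1 promoter on a CEN plasmid in hsf1-deleted S. cerevisiae PS128. Cells were selected at 37°C on -trp 5-FOA plates for 0, 2, 4, 6 and 8 days and amplicons were sequenced. Growth estimate is the slope of a robust linear fit of total-sum-normalised read counts (normalised to the first time point) over time, using at least 2 replicates. Sequences are classed functional (TAD activity) above a threshold of -0.13, set from stop-codon control sequences.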

Row | Substance | growth estimate
1 | GSCIPASLNVVPRRGLALIS | < -0.25
2 | GSDGVRFRWAGWPGCCLGDV | < -0.25
3 | GSDLGPD | < -0.25
4 | GSDPQG | < -0.25
5 | GSDRPLFRSCDCPPPVYH | < -0.25
6 | GSDSFIAPGGSPNEHYIA | -0.231
7 | GSDVDFLSYSMGVDGLGGCG | < -0.25
8 | GSEAISKGDRNLLGVRRC | < -0.25
9 | GSEATGGGGGIVPPVYPSIF | < -0.25
10 | GSEPGGAKALQIQRASVPRA | < -0.25
11 | GSF | < -0.25
12 | GSFAVLFGRWI | < -0.25
13 | GSFFQGELAYKRLCNKTSPH | < -0.25
14 | GSFLLIGHGKNRFVRQGTLA | < -0.25
15 | GSFRVHQ | -0.246
16 | GSGAGPSGLLDTHR | < -0.25
17 | GSGCQAPLERGDLEMGQPKP | < -0.25
18 | GSGGA | < -0.25
19 | GSGKHCIRGYY | < -0.25
20 | GSGLGSL | < -0.25
21 | GSGSTA | < -0.25
22 | GSGT | < -0.25
23 | GSI | < -0.25
24 | GSICVKGILGSGVEGNST | < -0.25
25 | GSIGRESGVRKSGVV | < -0.25

Row | Substance | growth estimate
26 | GSIISSSGAKDKTVPGRAPY | < -0.25
27 | GSISRWLGPVT | < -0.25
28 | GSKIVFGRDKTVGKKSELLR | < -0.25
29 | GSLEMRFL | < -0.25
30 | GSLFAPDL | < -0.25
31 | GSLICGVIASEARSL | < -0.25
32 | GSLPKKSTRGISCW | < -0.25
33 | GSLRCALTSFKTVTHSRS | < -0.25
34 | GSLRESDLSPTGSIRSRTSI | < -0.25
35 | GSLRGSCWVVFLP | < -0.25
36 | GSM | < -0.25
37 | GSNNQNAEEYSLGSRR | < -0.25
38 | GSP | < -0.25
39 | GSPFWVRAER | < -0.25
40 | GSPSWGSRLPRWLVGLTPTL | < -0.25
41 | GSPVARGP | < -0.25
42 | GSQADLSL | < -0.25
43 | GSQAVTRGLWKEI | < -0.25
44 | GSQVSVDKDIDWWFTPG | < -0.25
45 | GSRGPEISVVNRSEVSA | < -0.25
46 | GSRLEPYHMPPASCGVPGKC | < -0.25
47 | GSRNSIS | < -0.25
48 | GSRPDSRWVRQPISISLERD | < -0.25
49 | GSRPLARINYTLG | < -0.25
50 | GSRSGYPQESFRRAGRMVQV | < -0.25

2 neighbouring entries from above, for reference:
Row | Substance | growth estimate
9 | GSEATGGGGGIVPPVYPSIF | < -0.25
10 | GSEPGGAKALQIQRASVPRA | < -0.25

Next records follow.

Row | Substance | growth estimate
51 | GSSCRISKSRVSSL | < -0.25
52 | GSSI | < -0.25
53 | GSSLASVQS | < -0.25
54 | GSSQMCCNTTRSEDP | -0.245
55 | GSSRDASQYRQRGARISPAS | < -0.25
56 | GSSRLRNGLLSNSP | < -0.25
57 | GSSSSCCLRQVILYLPTTFL | < -0.25
58 | GSSSSKLSILCLVNHVGLPS | < -0.25
59 | GSSTVTRWSACIGLGVIELR | < -0.25
60 | GSTA | < -0.25
61 | GSTEWLRGSRTRGSPHSTRG | < -0.25
62 | GSTNYQESTILRVTPWPSAS | < -0.25
63 | GSTRSKLMGGLTRTPVMPTC | < -0.25
64 | GSVHEWRSELGGIAQDNIVF | < -0.25
65 | GSVRIT | < -0.25
66 | GSVWSD | < -0.25
67 | GSWL | < -0.25
68 | GSWTTSLWC | < -0.25
69 | GSYA | < -0.25
70 | GSYRALILLDFTLWRLLGRT | < -0.25
71 | GSYVKKS | < -0.25
72 | GTAGGPVLVTTIRPSRLGYV | < -0.25
73 | GTCEGASKCLL | < -0.25
74 | GTCGGHK | < -0.25
75 | GTCP | < -0.25

Row | Substance | growth estimate
76 | GTDCRFQNLLASCVG | < -0.25
77 | GTDRINAS | < -0.25
78 | GTECCCPSLHVLGSARLLRS | < -0.25
79 | GTELV | < -0.25
80 | GTESIVANRGP | < -0.25
81 | GTFTI | < -0.25
82 | GTGKCFFIGTDCETF | < -0.25
83 | GTGPHRMCSPIGLLVRIGVL | < -0.25
84 | GTGPLSSCLYQWADSSNTAL | < -0.25
85 | GTHLQLQGVLVDQYRVALVQ | < -0.25
86 | GTHMTLLPRVGDHIRTVSSG | < -0.25
87 | GTHSWARYDP | < -0.25
88 | GTIPYDYSTCEKAPRHGADS | -0.243
89 | GTL | < -0.25
90 | GTLACYLGVEKAKGTDVNRK | < -0.25
91 | GTLGPTPV | < -0.25
92 | GTLGTT | < -0.25
93 | GTLGVWFPNA | < -0.25
94 | GTLHAW | -0.191
95 | GTLVSARFRAYTNASAVRRI | < -0.25
96 | GTLYRWSVPLGEHT | < -0.25
97 | GTNASLAQVQMLGITWVRYQ | < -0.25
98 | GTNCYQTVLHWRPGQLQGST | < -0.25
99 | GTPASCMANTGFLEIIRTTD | < -0.25
100 | GTQCANVPKVLV | < -0.25

Row | Substance | growth estimate
101 | GTRDPVFKKCRYGRLKSWVG | -0.203
102 | GTRR | < -0.25
103 | GTRTGVEAGIVSLHCTNSGV | < -0.25
104 | GTSDFKMPDANRASPYAGIT | < -0.25
105 | GTSE | -0.245
106 | GTSN | < -0.25
107 | GTSVHAKARGRLLG | < -0.25
108 | GTTERLDISTRPCNGTNLTY | < -0.25
109 | GTTFVQTTSTNHVDANKALR | < -0.25
110 | GTTVESISVPGTISWNGNVA | < -0.25
111 | GTVHLLPGFARAVKRCLRDT | < -0.25
112 | GTVSSIRDEYVMRETRGVKS | < -0.25
113 | GTWLRS | < -0.25
114 | GTYR | < -0.25
115 | GVA | < -0.25
116 | GVADQQVQRAALTPPKDVSV | < -0.25
117 | GVAKLCRFNCTRNVARSGPK | < -0.25
118 | GVARTAAEGGEMVLRPFCSV | < -0.25
119 | GVATLVGANKSLCLNYTGFA | < -0.25
120 | GVATRTADNLPMITY | < -0.25
121 | GVAVSA | < -0.25
122 | GVCLSKDLAGHIS | < -0.25
123 | GVCSGNQQFRSEHSVLHTGP | < -0.25
124 | GVDLVYSAMRGVRPGLLFMA | < -0.25
125 | GVEHTLDARRL | < -0.25

Row | Substance | growth estimate
126 | GVEKRLGVPARFYSRVLATG | < -0.25
127 | GVEPQTPAARA | < -0.25
128 | GVETLETKTFGTCSI | < -0.25
129 | GVFIHTSAAIMGGYGRERIL | < -0.25
130 | GVGGVNDQRTGSFSLVFFHW | < -0.25
131 | GVGQEPTRINPSVLCCLENY | < -0.25
132 | GVGRF | < -0.25
133 | GVGSQTGVRSNKSWRYLRGV | < -0.25
134 | GVGV | < -0.25
135 | GVGVRLQQVLCVQNYRSGGP | < -0.25
136 | GVGVTWLTGEPAEGTSSAHG | < -0.25
137 | GVHGTPHRPMIWFWFGYTQR | < -0.25
138 | GVHGVGVLRGSLLLKTSPIV | < -0.25
139 | GVHSLPP | < -0.25
140 | GVICYKEQGLVSLLKTPTHQ | < -0.25
141 | GVIS | < -0.25
142 | GVKMYCLNIISQPGNQSGRL | < -0.25
143 | GVLHPHSILVGRSSIVRDVA | < -0.25
144 | GVLIVRQAAILAGPKTPSDI | < -0.25
145 | GVLNRCLDGPESDDP | < -0.25
146 | GVLWSLSNSGTVDAFYVNCV | < -0.25
147 | GVLYGGLE | < -0.25
148 | GVMRYTPRVGLITS | < -0.25
149 | GVMSHSESAEVASPQRRAKR | < -0.25
150 | GVN | < -0.25

Some of the entries so far, comma-delimited:
Row,Substance,growth estimate
8,GSEAISKGDRNLLGVRRC,< -0.25
11,GSF,< -0.25
12,GSFAVLFGRWI,< -0.25
30,GSLFAPDL,< -0.25
40,GSPSWGSRLPRWLVGLTPTL,< -0.25
41,GSPVARGP,< -0.25
46,GSRLEPYHMPPASCGVPGKC,< -0.25
49,GSRPLARINYTLG,< -0.25
52,GSSI,< -0.25
58,GSSSSKLSILCLVNHVGLPS,< -0.25
61,GSTEWLRGSRTRGSPHSTRG,< -0.25
62,GSTNYQESTILRVTPWPSAS,< -0.25
64,GSVHEWRSELGGIAQDNIVF,< -0.25
74,GTCGGHK,< -0.25
76,GTDCRFQNLLASCVG,< -0.25
78,GTECCCPSLHVLGSARLLRS,< -0.25
80,GTESIVANRGP,< -0.25
83,GTGPHRMCSPIGLLVRIGVL,< -0.25
84,GTGPLSSCLYQWADSSNTAL,< -0.25
86,GTHMTLLPRVGDHIRTVSSG,< -0.25
88,GTIPYDYSTCEKAPRHGADS,-0.243
96,GTLYRWSVPLGEHT,< -0.25
98,GTNCYQTVLHWRPGQLQGST,< -0.25
104,GTSDFKMPDANRASPYAGIT,< -0.25
108,GTTERLDISTRPCNGTNLTY,< -0.25
109,GTTFVQTTSTNHVDANKALR,< -0.25
112,GTVSSIRDEYVMRETRGVKS,< -0.25
113,GTWLRS,< -0.25
115,GVA,< -0.25
116,GVADQQVQRAALTPPKDVSV,< -0.25
119,GVATLVGANKSLCLNYTGFA,< -0.25
122,GVCLSKDLAGHIS,< -0.25
127,GVEPQTPAARA,< -0.25
132,GVGRF,< -0.25
133,GVGSQTGVRSNKSWRYLRGV,< -0.25
136,GVGVTWLTGEPAEGTSSAHG,< -0.25
139,GVHSLPP,< -0.25
144,GVLIVRQAAILAGPKTPSDI,< -0.25
145,GVLNRCLDGPESDDP,< -0.25
148,GVMRYTPRVGLITS,< -0.25
149,GVMSHSESAEVASPQRRAKR,< -0.25

(cont.)

Row | Substance | growth estimate
151 | GVNERTARKQQVGRNSPRRS | < -0.25
152 | GVNSMIRIGVCRNREILSHL | < -0.25
153 | GVPASSPSTKQQQDP | < -0.25
154 | GVPLNAMVARKGNRRSLQRS | -0.237
155 | GVPPKSSQATVIRV | < -0.25
156 | GVPRRYG | < -0.25
157 | GVQCG | < -0.25
158 | GVQR | < -0.25
159 | GVRARPTGTQWRFNRCFAPL | < -0.25
160 | GVRS | < -0.25
161 | GVRSGVSKSNTSPSEGSAVP | < -0.25
162 | GVSANWRVGQRQPAGWRESA | < -0.25
163 | GVSCACRRSGYKLCQYCLSS | < -0.25
164 | GVSSSVEARVVANGQGAPGQ | < -0.25
165 | GVSSWVGA | < -0.25
166 | GVSYSYIGNGRALHMCNSQV | < -0.25
167 | GVTAADRILSQSKGLRGFAG | < -0.25
168 | GVTEEAPIAIW | < -0.25
169 | GVTKRTGLNGSYPRGFPVWN | < -0.25
170 | GVVPFGNP | < -0.25
171 | GVVPQGGEDRMIGRD | < -0.25
172 | GVVSAAPPSPSAHYYRVHQL | < -0.25
173 | GVVSSNWSVSDPQASHTKRC | < -0.25
174 | GVWAGRGSEGYWAKQGPVGA | < -0.25
175 | GVYCLRR | < -0.25

Row | Substance | growth estimate
176 | GVYFIRMCETHVSCLEALRC | < -0.25
177 | GWAHTFDEV | < -0.25
178 | GWAIKNLAACFIIPLEG | -0.224
179 | GWARTMHPHSC | < -0.25
180 | GWATSCW | < -0.25
181 | GWAVWNKNRSAGRAGSSYDM | < -0.25
182 | GWELVSYIA | < -0.25
183 | GWETNQVCRTNFLEAPRKVR | < -0.25
184 | GWFGV | < -0.25
185 | GWG | < -0.25
186 | GWGATGPLCLV | < -0.25
187 | GWGISNFRAHA | < -0.25
188 | GWGRYGFCFIYMNSSGAHSC | < -0.25
189 | GWITVVRASRGKQRSSQRRS | < -0.25
190 | GWK | < -0.25
191 | GWKVRALFFHTNAKS | < -0.25
192 | GWLNNLHVVIRQDAFLLKIQ | < -0.25
193 | GWLRFIVSRLMSSMVRSHRL | < -0.25
194 | GWLTCVLRAAGLATYGNIR | < -0.25
